Laboratory results: PubChem BioAssay AID652272 (Drosophila RNAi Screening Center, 2013)
In all, the deposit lists about 21,000 reagents; below is an unselected part of those with a known target gene and a result. Over the whole deposit, 503 (2.4%) got an active call. 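Raw plate light values, not normalised; calls rest on replicate z-scores that were not deposited; hits include reporter decreases as well as increases.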 Unmarked entries are inactive. Not stated in the record: the amount of reagent, the time to read-out.

Screen: 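Genes whose knock-down decreases or increases Hedgehog reporter output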 (primary screen)
Cell system: Drosophila clone 8 (Cl8) cells
Knock-down reagent: long dsRNA against Drosophila genes
Measured: 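Firefly light from a Hedgehog-responsive ptc promoter reporter and Renilla reference light, both read on a plate reader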
Direction: firefly Hh reporter signal: higher = more ptc reporter light; Renilla reference signal: higher = more Renilla control light
Rule for the call: 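Called a hit if the two-replicate mean z-score lies below -2 or above +3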
Meaning of the calls: active = hit: reporter lowered or raised; inactive = not a hit

For CG14221 [SID104199370], the entry reads firefly Hh reporter signal, replicate 1 = 73904; firefly Hh reporter signal, replicate 2 = 1.95e5; Renilla reference signal, replicate 1 = 1684; Renilla reference signal, replicate 2 = 8018.
Silencing of Ca-beta [SID104182198] came out at: firefly Hh reporter signal, replicate 1 = 1.15e5; firefly Hh reporter signal, replicate 2 = 69493; Renilla reference signal, replicate 1 = 3584; Renilla reference signal, replicate 2 = 6024.
Silencing of Ca-beta [SID104182199] came out at: firefly Hh reporter signal, replicate 1 = 1.18e5; firefly Hh reporter signal, replicate 2 = 60902; Renilla reference signal, replicate 1 = 3130; Renilla reference signal, replicate 2 = 6061.
For Ca-beta [SID104183077], the values are firefly Hh reporter signal, replicate 1 = 1.79e5; firefly Hh reporter signal, replicate 2 = 8.73e5; firefly Hh reporter signal, replicate 3 = 1.12e5; Renilla reference signal, replicate 1 = 4358; Renilla reference signal, replicate 2 = 51111.
After knock-down of CG3253 [SID104184142] the results were firefly Hh reporter signal, replicate 1 = 1.63e5; firefly Hh reporter signal, replicate 2 = 1.35e5; Renilla reference signal, replicate 1 = 6676; Renilla reference signal, replicate 2 = 5411.
For snRNA:U4atac [SID104191847], the values are firefly Hh reporter signal, replicate 1 = 2.01e5; Renilla reference signal, replicate 1 = 4501.
Knock-down of scw [SID104181503] came out at: firefly Hh reporter signal, replicate 1 = 1.21e5; firefly Hh reporter signal, replicate 2 = 2.14e5; Renilla reference signal, replicate 1 = 3602; Renilla reference signal, replicate 2 = 10717.
Against scw [SID104201044], the entry reads firefly Hh reporter signal, replicate 1 = 83281; firefly Hh reporter signal, replicate 2 = 2.46e5; Renilla reference signal, replicate 1 = 3531; Renilla reference signal, replicate 2 = 9463.

Reformatted: results already given
| gene | PubChem SID | firefly Hh reporter signal, replicate 1 | firefly Hh reporter signal, replicate 2 | firefly Hh reporter signal, replicate 3 | Renilla reference signal, replicate 1 | Renilla reference signal, replicate 2 |
| --- | --- | --- | --- | --- | --- | --- |
| Ca-beta | SID104182199 | 1.18e5 | 60902 | – | 3130 | 6061 |
| Ca-beta | SID104183077 | 1.79e5 | 8.73e5 | 1.12e5 | 4358 | 51111 |

More records:
Knock-down of CG11374 [SID104180098] resulted in: firefly Hh reporter signal, replicate 1 = 1.22e5; firefly Hh reporter signal, replicate 2 = 97287; Renilla reference signal, replicate 1 = 2746; Renilla reference signal, replicate 2 = 2581.
After knock-down of Amnionless [SID104180109], the record shows firefly Hh reporter signal, replicate 1 = 1.39e5; firefly Hh reporter signal, replicate 2 = 87616; Renilla reference signal, replicate 1 = 3344; Renilla reference signal, replicate 2 = 1884.
After knock-down of CG11109 [SID104191425], the record shows firefly Hh reporter signal, replicate 1 = 1.49e5; firefly Hh reporter signal, replicate 2 = 1.28e5; Renilla reference signal, replicate 1 = 6312; Renilla reference signal, replicate 2 = 5059.
Silencing of Cht4 [SID104184395] resulted in: firefly Hh reporter signal, replicate 1 = 1.01e5; firefly Hh reporter signal, replicate 2 = 64880; Renilla reference signal, replicate 1 = 2652; Renilla reference signal, replicate 2 = 5841.
